{"source": "patent US4774320A", "about": "(Sclavo S.p.A., priority 1986, dated 1988)", "assay": "peptide synthesis", "settings": "whole synthesis, scale 0.2 mmol", "note": "Strings that start with PEPTIDE1 are HELM notation: dots part the residues, brackets hold end groups and non-standard residues.", "data": [{"substance": "PEPTIDE1{V.Q.G.E.E.S.N.D.K}$$$$V2.0", "values": [{"measurement": "isolated yield", "setting": "calculated with respect to the quantity of the first amino acid bound to the resin", "value": 63, "unit": "%"}, {"measurement": "isolated mass", "value": 126, "unit": "mg"}]}]}
